Assay results as given in the supplement of paper PMC8728848.
This is one part of the list.

Tests used:
Test in all cases: glycan array binding signal (z-score within array); higher = stronger binding
Conditions in all cases: glycan notation: IUPAC condensed, linker removed
[1] = target: Neu5Ac(a2-6)GlcNAc(b1-4)GlcNAc(b1-4)GlcNAc
Outline: (§1)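 The binding signal is a Z-score computed within each array. Data were drawn from 3228 arrays in the Consortium for Functional Glycomics database, restricted to those with a known protein sequence. Scores were averaged over arrays of the same protein sequence at different concentrations or buffers, and over linkers, and negative values can be taken as non-binding.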

Neu5Ac(a2-8)Neu5Ac = target: Neu5Ac(a2-8)Neu5Ac
Outline: as §1

[2] = target: Neu5Ac(a2-8)Neu5Ac(a2-3)Gal(b1-3)GalNAc(b1-4)[Neu5Ac(a2-3)]Gal(b1-4)Glc
Outline: as §1

[3] = target: Neu5Ac(a2-8)Neu5Ac(a2-3)Gal(b1-3)GalNAc(b1-4)[Neu5Ac(a2-8)Neu5Ac(a2-3)]Gal(b1-4)Glc
Outline: as §1

[4] = target: Neu5Ac(a2-8)Neu5Ac(a2-3)Gal(b1-4)Glc
Outline: as §1

[5] = target: Neu5Ac(a2-8)Neu5Ac(a2-3)Gal(b1-4)GlcNAc
Outline: as §1

[6] = target: Neu5Ac(a2-8)Neu5Ac(a2-3)[Gal(b1-3)GalNAc(b1-4)]Gal(b1-4)Glc
Outline: as §1

[7] = target: Neu5Ac(a2-8)Neu5Ac(a2-3)[GalNAc(b1-4)]Gal(b1-4)Glc
Outline: as §1

[8] = target: Neu5Ac(a2-8)Neu5Ac(a2-8)Neu5Ac
Outline: as §1

[9] = target: Neu5Ac(a2-8)Neu5Ac(a2-8)Neu5Ac(a2-3)Gal(b1-4)Glc
Outline: as §1

[10] = target: Neu5Ac(a2-8)Neu5Ac(a2-8)Neu5Ac(a2-3)[Gal(b1-3)GalNAc(b1-4)]Gal(b1-4)Glc
Outline: as §1

[11] = target: Neu5Ac(a2-8)Neu5Ac(a2-8)Neu5Ac(a2-3)[GalNAc(b1-4)]Gal(b1-4)Glc
Outline: as §1

[12] = target: Neu5Ac(a2-8)Neu5Ac(a2-8)Neu5Ac(a2-8)Neu5Ac(a2-3)[GalNAc(b1-4)]Gal(b1-4)Glc
Outline: as §1

[13] = target: Neu5Ac(a2-8)Neu5Gc(a2-3)Gal(b1-4)GlcNAc
Outline: as §1

[14] = target: Neu5Ac(b2-6)Gal(b1-4)GlcNAc
Outline: as §1

Neu5Ac(b2-6)GalNAc = target: Neu5Ac(b2-6)GalNAc
Outline: as §1

[15] = target: Neu5Ac9Ac(a2-3)Gal(b1-3)GlcNAc
Outline: as §1

[16] = target: Neu5Ac9Ac(a2-3)Gal(b1-4)GlcNAc
Outline: as §1

[17] = target: Neu5Ac9Ac(a2-6)Gal(b1-4)GlcNAc
Outline: as §1

[18] = target: Neu5Gc(a2-3)Gal(b1-3)GlcNAc
Outline: as §1

[19] = target: Neu5Gc(a2-3)Gal(b1-3)[Fuc(a1-4)]GlcNAc
Outline: as §1

Neu5Gc(a2-3)Gal(b1-4)Glc = target: Neu5Gc(a2-3)Gal(b1-4)Glc
Outline: as §1

[20] = target: Neu5Gc(a2-3)Gal(b1-4)GlcNAc
Outline: as §1

[21] = target: Neu5Gc(a2-3)Gal(b1-4)GlcNAc(b1-3)Gal(b1-4)GlcNAc(b1-2)Man(a1-3)[Neu5Gc(a2-3)Gal(b1-4)GlcNAc(b1-3)Gal(b1-4)GlcNAc(b1-2)Man(a1-6)]Man(b1-4)GlcNAc(b1-4)GlcNAc
Outline: as §1

[22] = target: Neu5Gc(a2-3)Gal(b1-4)[Fuc(a1-3)]GlcNAc
Outline: as §1

[23] = target: Neu5Gc(a2-6)Gal(b1-4)GlcNAc
Outline: as §1

Neu5Gc(a2-6)GalNAc = target: Neu5Gc(a2-6)GalNAc
Outline: as §1

[24] = target: Neu5Gc(a2-8)Neu5Ac(a2-3)Gal(b1-4)GlcNAc
Outline: as §1

[25] = target: Neu5Gc(a2-8)Neu5Gc(a2-3)Gal(b1-4)GlcNAc
Outline: as §1

[26] = target: Neu5Gc(a2-8)Neu5Gc(a2-3)Gal(b1-4)GlcNAc(b1-3)Gal(b1-4)GlcNAc
Outline: as §1

[27] = target: Neu5Gc(a2-8)Neu5Gc(a2-6)Gal(b1-4)GlcNAc
Outline: as §1

[28] = target: Neu5Gc(b2-6)Gal(b1-4)GlcNAc
Outline: as §1

B1: SspB C123 (Streptococcus gordonii), Q54186 (protein)
chain: MAHFHYSSLLAQPQINKEIKNEDGVDIDRTLVAKQSIGKFELKTEALTAGRPKTTSFVLVDPLPTGYKFDLDATKAASTGFDTTYDEASHTVTFKATDETLATYNADLTKPVETLHPTVVGRVLNDGATYTNNFTLTVNDAYGIKSNVVRVTTPGKPNDPDNPNNNYIKPTKVNKNKEGLNIDGKEVLAGSTNYYELTWDLDQYKGDKSSKEAIQNGFYYVDDYPEEALDVRPDLVKVADEKGNQVSGVSVQQYDSLEAAPKKVQDLLKKANITVKGAFQLFSADNPEEFYKQYVSTGTSLVITDPMTVKSEFGKTGGKYENKAYQIDFGNGYATEVVVNNVPKITPKKDVTVSLDPTSENLDGQTVQLYQTFNYRLIGGFIPQNHSEELEDYSFVDDYDQAGDQYTGNYKTFSSLNLTMKDGSVIKAGTDLTSQTTAETDATNGIVTVRFKEDFLQKISLDSPFQAETYLQMRRIAIGTFENTYVNTVNKVAYASAAALEHHHHHH
Q: With B1 as the binder, how does the “glycan array binding signal (z-score)” value [1] read?
A: 0.529

Q: What about the “glycan array binding signal (z-score)” value (Neu5Ac(a2-8)Neu5Ac) of the same binder?
A: -0.114

Q: What about the “glycan array binding signal (z-score)” value [2] of the same binder?
A: 0.292

Q: And the “glycan array binding signal (z-score)” value [3]?
A: -1.38

Q: And the “glycan array binding signal (z-score)” value [4]?
A: -0.987

Q: What about the “glycan array binding signal (z-score)” value [5] of the same binder?
A: -0.93

Q: And the “glycan array binding signal (z-score)” value [6]?
A: -0.243

Q: And the “glycan array binding signal (z-score)” value [7]?
A: -0.217

Q: And the “glycan array binding signal (z-score)” value [8]?
A: 0.341

Q: And the “glycan array binding signal (z-score)” value [9]?
A: -1

Q: What about the “glycan array binding signal (z-score)” value [10] of the same binder?
A: 5.25

Q: What about the “glycan array binding signal (z-score)” value [11] of the same binder?
A: 2.29

Q: And the “glycan array binding signal (z-score)” value [12]?
A: -0.486

Q: What about the “glycan array binding signal (z-score)” value [13] of the same binder?
A: -0.198

Q: And the “glycan array binding signal (z-score)” value [14]?
A: -0.062

Q: And the “glycan array binding signal (z-score)” value (Neu5Ac(b2-6)GalNAc)?
A: 0.518

Q: And the “glycan array binding signal (z-score)” value [15]?
A: -1.32

Q: And the “glycan array binding signal (z-score)” value [16]?
A: -0.938

Q: What about the “glycan array binding signal (z-score)” value [17] of the same binder?
A: 0.758

Q: And the “glycan array binding signal (z-score)” value [18]?
A: -0.556

Q: And the “glycan array binding signal (z-score)” value [19]?
A: -1.01

Q: And the “glycan array binding signal (z-score)” value (Neu5Gc(a2-3)Gal(b1-4)Glc)?
A: -0.645

Q: What about the “glycan array binding signal (z-score)” value [20] of the same binder?
A: 0.069

Q: And the “glycan array binding signal (z-score)” value [21]?
A: 1.1

Q: And the “glycan array binding signal (z-score)” value [22]?
A: 0.32

Q: What about the “glycan array binding signal (z-score)” value [23] of the same binder?
A: -1.07

Q: What about the “glycan array binding signal (z-score)” value (Neu5Gc(a2-6)GalNAc) of the same binder?
A: -0.608

Q: What about the “glycan array binding signal (z-score)” value [24] of the same binder?
A: 0.879

Q: And the “glycan array binding signal (z-score)” value [25]?
A: -0.249

Q: And the “glycan array binding signal (z-score)” value [26]?
A: -1.2

Q: And the “glycan array binding signal (z-score)” value [27]?
A: -0.685

Q: And the “glycan array binding signal (z-score)” value [28]?
A: -1.21
